Measurements as given in the supplement of paper PMC8728848.
The list shows a part of the results.

Experiments:
Assay in all cases: glycan array binding signal (z-score within array); higher = stronger binding
Settings in all cases: glycan notation: IUPAC condensed, linker removed
[1] = molecular target: Gal(b1-4)Glc
Procedure, shortened: (§1)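 The binding signal is a Z-score computed within each array and averaged over linkers. Arrays of the same protein sequence at different concentrations or buffers were also averaged together. Data originate from 3228 arrays in the Consortium for Functional Glycomics database, kept only where the protein sequence was available.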

[2] = molecular target: Gal(b1-4)Glc6S
Procedure, shortened: as §1

[3] = molecular target: Gal(b1-4)GlcNAc
Procedure, shortened: as §1

[4] = molecular target: Gal(b1-4)GlcNAc(a1-6)Gal(b1-4)GlcNAc
Procedure, shortened: as §1

[5] = molecular target: Gal(b1-4)GlcNAc(b1-2)Man
Procedure, shortened: as §1

[6] = molecular target: Gal(b1-4)GlcNAc(b1-2)Man(a1-3)Man(b1-4)GlcNAc(b1-4)GlcNAc
Procedure, shortened: as §1

[7] = molecular target: Gal(b1-4)GlcNAc(b1-2)Man(a1-3)[Gal(b1-4)GlcNAc(b1-2)Man(a1-6)]Man(b1-4)GlcNAc(b1-4)GlcNAc
Procedure, shortened: as §1

[8] = molecular target: Gal(b1-4)GlcNAc(b1-2)Man(a1-3)[Gal(b1-4)GlcNAc(b1-2)Man(a1-6)]Man(b1-4)GlcNAc(b1-4)[Fuc(a1-6)]GlcNAc
Procedure, shortened: as §1

[9] = molecular target: Gal(b1-4)GlcNAc(b1-2)Man(a1-3)[Gal(b1-4)GlcNAc(b1-2)Man(a1-6)][Gal(b1-4)GlcNAc(b1-4)]Man(b1-4)GlcNAc(b1-4)[Fuc(a1-6)]GlcNAc
Procedure, shortened: as §1

[10] = molecular target: Gal(b1-4)GlcNAc(b1-2)Man(a1-3)[Gal(b1-4)GlcNAc(b1-2)Man(a1-6)][GlcNAc(b1-4)]Man(b1-4)GlcNAc(b1-4)[Fuc(a1-6)]GlcNAc
Procedure, shortened: as §1

[11] = molecular target: Gal(b1-4)GlcNAc(b1-2)Man(a1-3)[GlcNAc(b1-2)Man(a1-6)]Man(b1-4)GlcNAc(b1-4)GlcNAc
Procedure, shortened: as §1

[12] = molecular target: Gal(b1-4)GlcNAc(b1-2)Man(a1-3)[GlcNAc(b1-4)][Gal(b1-4)GlcNAc(b1-2)Man(a1-6)]Man(b1-4)GlcNAc(b1-4)GlcNAc
Procedure, shortened: as §1

[13] = molecular target: Gal(b1-4)GlcNAc(b1-2)Man(a1-3)[Man(a1-6)]Man(b1-4)GlcNAc(b1-4)GlcNAc
Procedure, shortened: as §1

[14] = molecular target: Gal(b1-4)GlcNAc(b1-2)Man(a1-6)Man(b1-4)GlcNAc(b1-4)GlcNAc
Procedure, shortened: as §1

[15] = molecular target: Gal(b1-4)GlcNAc(b1-2)Man(a1-6)[GlcNAc(b1-2)Man(a1-3)]Man(b1-4)GlcNAc(b1-4)GlcNAc
Procedure, shortened: as §1

[16] = molecular target: Gal(b1-4)GlcNAc(b1-2)Man(a1-6)[Man(a1-3)]Man(b1-4)GlcNAc(b1-4)GlcNAc
Procedure, shortened: as §1

[17] = molecular target: Gal(b1-4)GlcNAc(b1-2)[Gal(b1-4)GlcNAc(b1-4)]Man(a1-3)[Gal(b1-4)GlcNAc(b1-2)Man(a1-6)]Man(b1-4)GlcNAc(b1-4)GlcNAc
Procedure, shortened: as §1

[18] = molecular target: Gal(b1-4)GlcNAc(b1-2)[Gal(b1-4)GlcNAc(b1-4)]Man(a1-3)[Gal(b1-4)GlcNAc(b1-2)[Gal(b1-4)GlcNAc(b1-6)]Man(a1-6)]Man(b1-4)GlcNAc(b1-4)GlcNAc
Procedure, shortened: as §1

[19] = molecular target: Gal(b1-4)GlcNAc(b1-2)[Gal(b1-4)GlcNAc(b1-4)]Man(a1-3)[GlcNAc(b1-4)][Gal(b1-4)GlcNAc(b1-2)Man(a1-6)]Man(b1-4)GlcNAc(b1-4)GlcNAc
Procedure, shortened: as §1

[20] = molecular target: Gal(b1-4)GlcNAc(b1-2)[Gal(b1-4)GlcNAc(b1-4)]Man(a1-3)[GlcNAc(b1-4)][Gal(b1-4)GlcNAc(b1-2)[Gal(b1-4)GlcNAc(b1-6)]Man(a1-6)]Man(b1-4)GlcNAc(b1-4)GlcNAc
Procedure, shortened: as §1

[21] = molecular target: Gal(b1-4)GlcNAc(b1-2)[Gal(b1-4)GlcNAc(b1-6)]Man(a1-6)[Gal(b1-4)GlcNAc(b1-2)Man(a1-3)]Man(b1-4)GlcNAc(b1-4)GlcNAc
Procedure, shortened: as §1

[22] = molecular target: Gal(b1-4)GlcNAc(b1-2)[Gal(b1-4)GlcNAc(b1-6)]Man(a1-6)[Gal(b1-4)GlcNAc(b1-2)Man(a1-3)]Man(b1-4)GlcNAc(b1-4)[Fuc(a1-6)]GlcNAc
Procedure, shortened: as §1

[23] = molecular target: Gal(b1-4)GlcNAc(b1-2)[Gal(b1-4)GlcNAc(b1-6)]Man(a1-6)[GlcNAc(b1-4)][Gal(b1-4)GlcNAc(b1-2)Man(a1-3)]Man(b1-4)GlcNAc(b1-4)GlcNAc
Procedure, shortened: as §1

[24] = molecular target: Gal(b1-4)GlcNAc(b1-2)[Gal(b1-4)GlcNAc(b1-6)]Man(a1-6)[GlcNAc(b1-4)][Gal(b1-4)GlcNAc(b1-2)[Gal(b1-4)GlcNAc(b1-4)]Man(a1-3)]Man(b1-4)GlcNAc(b1-4)[Fuc(a1-6)]GlcNAc
Procedure, shortened: as §1

[25] = molecular target: Gal(b1-4)GlcNAc(b1-3)Gal(b1-3)GalNAc
Procedure, shortened: as §1

[26] = molecular target: Gal(b1-4)GlcNAc(b1-3)Gal(b1-3)GlcNAc
Procedure, shortened: as §1

[27] = molecular target: Gal(b1-4)GlcNAc(b1-3)Gal(b1-4)Glc
Procedure, shortened: as §1

[28] = molecular target: Gal(b1-4)GlcNAc(b1-3)Gal(b1-4)GlcNAc
Procedure, shortened: as §1

[29] = molecular target: Gal(b1-4)GlcNAc(b1-3)Gal(b1-4)GlcNAc(b1-2)Man(a1-3)[Gal(b1-4)GlcNAc(b1-3)Gal(b1-4)GlcNAc(b1-2)Man(a1-6)]Man(b1-4)GlcNAc(b1-4)GlcNAc
Procedure, shortened: as §1

[30] = molecular target: Gal(b1-4)GlcNAc(b1-3)Gal(b1-4)GlcNAc(b1-2)Man(a1-3)[Gal(b1-4)GlcNAc(b1-3)Gal(b1-4)GlcNAc(b1-2)Man(a1-6)]Man(b1-4)GlcNAc(b1-4)[Fuc(a1-6)]GlcNAc
Procedure, shortened: as §1

B1: CD4 (Rattus norvegicus), P05540 (protein)
chain: MCRGFSFRHLLPLLLLQLSKLLVVTQGSTSITAYKSEGESAEFSFPLNLGEESLQGELRWKAEKAPSSQSWITFSLKNQKVSVQKSTSNPKFQLSETLPLTLQIPQVSLQFAGSGNLTLTLDRGILYQEVNLVVMKVTQPDSNTLTCEVMGPTSPKMRLILKQENQEARVSRQEKVIQVQAPEAGVWQCLLSEGEEVKMDSKIQVLSKGLNSGGGSGGGTGGGDLAPQMLRELQETNAALQDVRELLRQQVKEITFLKNTVMECDACGLDRNLPPLAPLGPHPETLVKVKDAEDQLGARVGYIELDLNSGKILESFRPEERFPMMSTFKVLLCGAVLSRIDAGQEQLGRRIHYSQNDLVEYSPVTEKHLTDGMTVRELCSAAITMSDNTAANLLLTTIGGPKELTAFLHNMGDHVTRLDRWEPELNEAIPNDERDTTMPVAMATTLRKLLTGELLTLASRQQLIDWMEADKVAGPLLRSALPAGWFIADKSGAGERGSRGIIAALGPDGKPSRIVVIYTTGSQATMDERNRQIAEIGASLIKHW
With B1 the “glycan array binding signal (z-score)” value [1] was 0.549, the “glycan array binding signal (z-score)” value [2] was 0.883 and the “glycan array binding signal (z-score)” value [3] was -0.956. The “glycan array binding signal (z-score)” value [4] was -0.407, the “glycan array binding signal (z-score)” value [5] was -0.294 and the “glycan array binding signal (z-score)” value [6] was -1. The “glycan array binding signal (z-score)” value [7] was 0.135, the “glycan array binding signal (z-score)” value [8] was 1.38 and the “glycan array binding signal (z-score)” value [9] was 1.09. The “glycan array binding signal (z-score)” value [10] was -0.791, the “glycan array binding signal (z-score)” value [11] was -1.32 and the “glycan array binding signal (z-score)” value [12] was -0.472. The “glycan array binding signal (z-score)” value [13] was 1.82, the “glycan array binding signal (z-score)” value [14] was 0.125 and the “glycan array binding signal (z-score)” value [15] was -0.524. The “glycan array binding signal (z-score)” value [16] was -1.67, the “glycan array binding signal (z-score)” value [17] was -0.405 and the “glycan array binding signal (z-score)” value [18] was 1.14. The “glycan array binding signal (z-score)” value [19] was -1.1, the “glycan array binding signal (z-score)” value [20] was -1.4 and the “glycan array binding signal (z-score)” value [21] was 0.078. The “glycan array binding signal (z-score)” value [22] was -0.942, the “glycan array binding signal (z-score)” value [23] was -0.624 and the “glycan array binding signal (z-score)” value [24] was 1.59. The “glycan array binding signal (z-score)” value [25] was 3.12, the “glycan array binding signal (z-score)” value [26] was -1.02 and the “glycan array binding signal (z-score)” value [27] was 0.472. For the same binder, the “glycan array binding signal (z-score)” value [28] was -0.847, the “glycan array binding signal (z-score)” value [29] was 1.52 and the “glycan array binding signal (z-score)” value [30] was 2.88.
